Entries after “also recorded” stand apart in the source; their conditions may differ. At least one structure is not confirmed: it was looked up by name or label, or the drawing left a doubt.
Experiments:
[1] = system: breast cancer patients (AZURE trial); assay: AZURE trial, zoledronic acid treatment effect according to MAF FISH stratification (Example 2); format: in vivo, human; conditions: for IDFS (excluding bone): zoledronic acid versus control arm
From the text: The MAF FISH assay was produced by Kreatech for Inbiomotion based on Kreatech proprietary FISH technology. The probe set contains two probes: a MAF 16q23 probe plus a D16Z3 probe as control of chromosome 16 centromeric region. The assay was validated using a 16q23/D16Z3 probe (Inbiomotion) and Poseidon Tissue Digestion Kit from Kreatech. The scoring criteria were defined in a fact sheet and as follows: two FISH evaluable results per patient, and the highest value was selected. The scoring algorithm was as follows: 20 cells counted for target and centromere amplification, if the gene count is >2 and ≤3, then 50 cells were counted.
An overview of the AZURE clinical trial (Coleman et al N Eng J Med 2011; 365: 1396-1405 and AZURE Current Controlled Trials number, ISRCTN79831382 and ClinicalTrials.gov identifier NCT00072020) study design, whose patients were used to validate MAF, is provided in FIG. 2. MAF was validated in a retrospective analysis of the AZURE trial using patient tumor sample prospectively collected under regulatory compliant conditions. Out of the 3,360 patients recruited, 1,769 donated tumor tissue (52.4%). There were 13 TMAs (tissue micro array) (150 patient samples each) (1,769 patients). There were 4 replicas of each TMA using different tissue cores (6,326 (4× patient)). One TMA had only 1 replica and two TMAs had three replicas. Based on the H&E analysis (hematoxylin and eosin) (FIG. 3) (6,326): 3,978 cores were evaluable (63%) and 2,348 were nonevaluable.
For the FISH assay, there were 2,067 FISH evaluable cores (56%). […] 567 patients were nonevaluable by FISH in any of the 4 replicas (32%).
With regard to molecular variables, for FISH analysis: MAF copy number: numerical and categorical (+/−cut-off>=2.5) variable; % of nucleic MAF amplified (MAF CN>2):numberical+categorical (cut-off TBD). For the IHC analysis: IHC H-Score: numerical+categorical (cut-off>=200), IHC OD: numerical+categorical (cut-off tBD). The following clinical variables were analyzed: disease-free survival (DFS), invasive disease-free survival (IDFS), overall survival (OS), first recurrence in bone, bone recurrence at any time, time to first DFS event in bone, time to first DFS event not in bone, response to zoledronic acid treatment.
In analyzing the MAF FISH prognostic value, the patients from the control and treatment arms were pooled for the initial analysis. Optimized cut-offs for each variable to be analyzed were used when indicated. Death as a competing event was used in time to bone metastasis, anytime. The following clinical variables were analyzed: time to bone metastasis (anytime), time to bone metastasis (as first event), IDFS (including ipsilateral invasive breast tumor recurrence, regional invasive breast cancer recurrence, metastatic disease-breast cancer, death attributable to any cause, including breast cancer, contralateral invasive breast cancer, second primary non-breast invasive cancer), and overall survival.
The control and zoledronic acid treatment arms from the AZURE study described in Example 1 were evaluated to determine the effect of zoledronic acid treatment on MAF-stratified patients.

[2] = system: patients with invasive stage II or III breast cancer (AZURE trial); assay: AZURE trial, effect of MAF amplification on treatment outcomes with adjuvant zoledronic acid (Example 3); format: in vivo, human
From the text: 3,360 patients from 174 centers worldwide were recruited to the AZURE trial between Sep. 4, 2003, and Feb. 16, 2006. Eligible patients had histologically confirmed invasive stage II or III breast cancer of any subtype, with either pathologically involved axillary lymph node metastasis or a T3 or T4 primary tumor treated with curative intent and complete resection of the primary tumor (or planned resection if patients were being treated with neoadjuvant chemotherapy). Other inclusion criteria were age 18 years or older, Karnofsky performance status score 80 or more, and not being pregnant or breastfeeding. Patients were excluded if they had clinical or imaging evidence of distant metastases, current or recent (<1 year) use of bisphosphonates, or pre-existing bone disease likely to require bone-targeted treatment. All patients gave written informed consent. In the UK, patients also provided voluntary specific consent for use of biological materials (primary tumor and blood samples). Before randomization, patients underwent hematological, renal, hepatic function, and staging imaging tests according to institutional protocols. Those confirmed to be eligible were randomly assigned (1:1) to standard adjuvant systemic treatment alone or with zoledronic acid from a central computer-generated schedule held at the Clinical Trials Research Unit, University of Leeds, Leeds, UK. A minimization process that took into account the number of involved axillary lymph nodes, clinical tumor stage, estrogen receptor status, type and timing of systemic therapy, menopausal status, statin use, and treating center was used.
Patients received standard systemic therapy with (neo-) adjuvant chemotherapy, endocrine therapy, or both, alone (control group) or with 4 mg zoledronic acid given intravenously every 3-4 weeks for the first six doses, every 3 months for eight doses, and every 6 months for five doses to complete 5 years of treatment (zoledronic acid group). Oral calcium and vitamin D supplements were recommended for all patients in the first 6 months of treatment, and continued thereafter at the discretion of the treating physician. Adjuvant systemic treatments and locoregional radiotherapy were used in accordance with the standard protocols of each participating institution.
The follow-up schedule was similar in both study groups, and included clinical assessments, monitoring of adverse events, and hematological, renal, and hepatic function tests. Routine follow-up imaging was not mandated, but investigations were done for clinically suspected recurrence if deemed appropriate by the treating physician. Recurrence was defined by the date on which it was first suspected, to reduce the risk of ascertainment bias. 91% of recurrences were independently validated by either on-site or telephone based monitoring. After treatment with zoledronic acid was completed, patients were followed up annually for disease and safety endpoints.
5 μm thick slices were cut from each TMA block and oriented to match the TMA map to allow identification of each tissue core. The slices were mounted onto Superfrost plus glass slides (Thermo Fisher Scientific, Waltham, MA, USA) and stained with hematoxylin and eosin to confirm the presence of assessable tumor. MAF amplification was assessed with the validated MAFTEST fluorescence in situ hybridization (FISH) with the MAF/D16Z3 probe (Inbiomotion, Barcelona, Spain). A central laboratory (Targos Molecular Pathology, Kassel, Germany) validated the analytical and diagnostic performance of the assay, established acceptance criteria, included appropriate quality controls for each assay, and performed the analyses masked to treatment assignment. Briefly, TMA sections were rehydrated in ethanol series, washed with water, and pretreated at 98° C. for 15 min. Samples were digested with pepsin in a Poseidon Tissue Digestion Kit (Kreatech, Amsterdam, Netherlands) for 30 min, dehydrated in ethanol series, and dried. […]

[3] = patients with MAF-negative tumors

O=P(O)(O)C(O)(Cn1ccnc1)P(=O)(O)O [zoledronic acid]
outcome ([1]; MAF FISH positive non-postmenopausal patients): worsens the outcome | overall survival (OS) ([1]; MAF FISH positive patients, zoledronic acid treatment): significantly impacted the OS; also recorded: significantly shorter overall survival | outcome ([1]; MAF FISH positive postmenopausal patients): improves the outcome | outcome with regard to bone metastasis at any time risk ([1]; MAF negative patients, treated compared to untreated): better outcome | outcome in terms of bone metastasis at any time, IDFS (including and excluding bone events) and overall survival ([1]; MAF positive patients, treated compared to untreated): worse outcome | IDFS ([1]; MAF positive patients, zoledronic acid treated compared to untreated): worsened IDFS | IDFS (excluding bone) ([1]; non-post menopausal, MAF FISH non-positive): no difference | IDFS (excluding bone) ([1]; non-post menopausal, MAF FISH positive (>=2.2)): significantly worsens; also recorded: worse outcome | risk of bone metastasis at any time, MAF positive compared to MAF non-positive patients ([1]; patients treated with zoledronic acid): no significant difference | IDFS (excluding bone) ([1]; post-menopausal, MAF FISH positive (>=2.2)): significantly improved; also recorded: better outcome | IDFS (excluding bone) ([1]; post-menopausal, MAF non-positive): no difference | differences in incidence of bone as first site of recurrence between MAF positive and non-positive patients ([1]; zoledronic acid arm versus control arm, MAF FISH cutoff 2.3): reduced the differences in incidence of bone as first site of recurrence; also recorded: difference is reduced | DFS outcome between MAF FISH positive and negative patients ([1]; zoledronic acid treatment, post and non-post menopausal women): differential DFS outcome | effect on invasive-disease-free survival ([2]; MAF positive tumors, not postmenopausal at start of treatment or age younger than 50 years): clear adverse effects | invasive-disease free survival in relation to menopausal status ([2]; patients treated with zoledronic acid, individual HRs of Table 2): independent of menopausal status | invasive-disease-free survival versus standard treatment alone ([2]; patients with MAF positive tumors): not associated with longer invasive-disease-free survival | invasive-disease-free survival versus standard treatment alone [2, 3]: longer invasive-disease-free survival | treatment benefits by menopausal status or age [2, 3]: independent of menopausal status | disease outcomes ([2]; the 79% of patients with MAF-negative tumors (mean copy number<2·5), adjuvant): improved disease outcomes | invasive-disease-free survival, MAF-positive versus MAF-negative tumors ([2]; zoledronic acid group): shorter
